Data published in PMC12115221.
No constants are given. Whether binding was seen depends on the method and setting. For some assays here: In cells and extracts the contact can be indirect. Some binding calls cover weakened binding; strength is not graded here. For some assays here: Sequences can lack the tags named with a protein.

T1: OsNEK6 full length in pGBKT7 (bait) (rice (Oryza sativa)) (UniProt Q6YY75)
T1 sequence: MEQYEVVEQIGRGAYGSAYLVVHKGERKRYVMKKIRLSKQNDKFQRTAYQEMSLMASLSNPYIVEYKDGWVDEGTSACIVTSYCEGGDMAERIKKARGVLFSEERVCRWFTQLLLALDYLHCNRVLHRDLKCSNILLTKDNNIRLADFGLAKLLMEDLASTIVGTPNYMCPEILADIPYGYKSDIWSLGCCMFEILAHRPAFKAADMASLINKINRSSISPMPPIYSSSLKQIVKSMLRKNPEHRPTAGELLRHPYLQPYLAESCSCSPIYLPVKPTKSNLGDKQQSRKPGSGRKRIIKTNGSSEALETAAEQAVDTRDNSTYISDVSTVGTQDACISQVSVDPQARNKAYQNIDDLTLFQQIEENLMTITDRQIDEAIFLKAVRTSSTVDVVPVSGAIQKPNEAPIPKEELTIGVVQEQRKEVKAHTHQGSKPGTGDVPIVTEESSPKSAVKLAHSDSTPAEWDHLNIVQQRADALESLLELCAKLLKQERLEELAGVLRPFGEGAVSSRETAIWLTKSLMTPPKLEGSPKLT

T2: OsNEK6-cYFP (rice (Oryza sativa)) (UniProt Q6YY75)
T2 sequence: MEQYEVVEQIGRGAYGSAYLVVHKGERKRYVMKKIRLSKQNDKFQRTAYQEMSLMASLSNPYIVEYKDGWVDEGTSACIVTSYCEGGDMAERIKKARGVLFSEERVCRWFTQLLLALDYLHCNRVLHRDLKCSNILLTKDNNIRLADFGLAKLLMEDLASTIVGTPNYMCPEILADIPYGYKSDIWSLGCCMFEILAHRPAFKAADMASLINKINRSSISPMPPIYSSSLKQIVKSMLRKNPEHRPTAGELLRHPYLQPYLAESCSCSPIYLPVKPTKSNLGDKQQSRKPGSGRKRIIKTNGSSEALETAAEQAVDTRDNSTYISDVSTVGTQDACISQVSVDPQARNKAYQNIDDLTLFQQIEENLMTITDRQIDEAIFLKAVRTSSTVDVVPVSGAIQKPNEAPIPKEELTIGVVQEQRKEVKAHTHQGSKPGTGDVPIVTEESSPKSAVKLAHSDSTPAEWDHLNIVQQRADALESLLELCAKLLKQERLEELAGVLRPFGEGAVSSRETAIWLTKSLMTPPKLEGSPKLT


How the values were obtained:
[1] = target: T1, OsNEK6 full length in pGBKT7 (bait) (rice (Oryza sativa)); assay: two-hybrid; pairwise co-transformation of pGADT7 and pGBKT7 constructs into yeast strain Y2H Gold; SD/-Trp/-Leu, then SD/-Ade/-His/-Trp/-Leu/X-alpha-Gal plates for 3-5 days
[2] = target: T2, OsNEK6-cYFP (rice (Oryza sativa)); assay: split reporter; BiFC; pSAT6-NYFP and pSAT6-CYFP constructs transiently expressed in rice protoplasts via PEG transformation for 2 days; confocal microscopy

Row | binding [1] | binding [2] | Binder
1 | binds | – | OsDi19-3 full length in pGADT7 (prey) (protein, UniProt Q5QMP3 1-246) MDSEHWISSLAAAKRFYAAQLGHVDDMAGIGMEEVEMEMEDDGEGMELELEMQLEEATWPDVACPYCYEDHDIASLCAHLEEDHPYEPHTSPCPICFEKITRDMLNHITMQHGYLFKSGRRMRRFDIPESQALSLLSRDLRDAQLQALLGGGHRQRRSNTTATNISADPLLSSFGLGFSTLDSEERSKAPVPIPDDTSIHKDTPAQPWESRIDSSLTSEEREQKRKQATDRATFVQGLVLSTLFED
2 | – | binds | OsDi19-nYFP (protein, UniProt Q5QMP3 1-246) MDSEHWISSLAAAKRFYAAQLGHVDDMAGIGMEEVEMEMEDDGEGMELELEMQLEEATWPDVACPYCYEDHDIASLCAHLEEDHPYEPHTSPCPICFEKITRDMLNHITMQHGYLFKSGRRMRRFDIPESQALSLLSRDLRDAQLQALLGGGHRQRRSNTTATNISADPLLSSFGLGFSTLDSEERSKAPVPIPDDTSIHKDTPAQPWESRIDSSLTSEEREQKRKQATDRATFVQGLVLSTLFED
